PubChem BioAssay AID504744 – Drosophila RNAi Screening Center, 2011

Assay: 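Find genes whose loss alters insulin-driven dAkt phosphorylation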 (primary screen)
Cell system: Drosophila Kc167 cells
Reagents: long dsRNA against Drosophila genes, 250 ng dsRNA per well of a 384-well plate
Timing: 3 days of knock-down, then overnight serum-free starvation before stimulation
Challenge: bovine insulin at 387 nM for 10 minutes after 12 h without serum
Measured: 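In-cell antibody fluorescence for phospho-dAkt in each well over DNA-dye signal, with log2 residuals expressed as z-scores adjusted for cell count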
Call rule: 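Under insulin, a gene counts as a hit if the average z-score of two replicates lies above 2.5 or below -2.5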
In all, the deposit lists about 23,000 reagents; shown is a random part of those with a known target gene and a result. In the full data, 98 (0.43%) were called active. 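Only hit calls are given; the phospho-dAkt signals, z-scores and hit direction were not deposited.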 Names joined by + are all predicted targets of the reagent.

{"gene knocked down": "Uxt (GeneID 34893)", "DRSC id": "DRSC01962", "activity call": "inactive"}
{"gene knocked down": "Polr3G (GeneID 39941)", "DRSC id": "DRSC21511", "activity call": "inactive"}
{"gene knocked down": "CG15734 (GeneID 32177)", "DRSC id": "DRSC19701", "activity call": "inactive"}
{"gene knocked down": "CG1387 (GeneID 31770)", "DRSC id": "DRSC17904", "activity call": "inactive"}
{"gene knocked down": "CG17196 (GeneID 43112)", "DRSC id": "DRSC15189", "activity call": "inactive"}
{"gene knocked down": "CG13218 (GeneID 36177)", "DRSC id": "DRSC06340", "activity call": "inactive"}
{"gene knocked down": "lectin-30A (GeneID 53541)", "DRSC id": "DRSC02560", "activity call": "inactive"}
{"gene knocked down": "Larp7 (GeneID 44900)", "DRSC id": "DRSC18798", "activity call": "inactive"}
{"gene knocked down": "CG11777 (GeneID 36108)", "DRSC id": "DRSC06081", "activity call": "inactive"}
{"gene knocked down": "CG31191 (GeneID 42477)", "DRSC id": "DRSC13455", "activity call": "inactive"}
{"gene knocked down": "CG31191 (GeneID 42477)", "DRSC id": "DRSC15214", "activity call": "inactive"}
{"gene knocked down": "CG31191 (GeneID 42477)", "DRSC id": "DRSC15215", "activity call": "inactive"}
{"gene knocked down": "CG12947 (GeneID 41201)", "DRSC id": "DRSC14575", "activity call": "inactive"}
{"gene knocked down": "Or85b (GeneID 41007)", "DRSC id": "DRSC16765", "activity call": "inactive"}
{"gene knocked down": "twi (GeneID 37655)", "DRSC id": "DRSC04720", "activity call": "inactive"}
{"gene knocked down": "CG40053 (retired record) (GeneID 3355092)", "DRSC id": "DRSC20833", "activity call": "inactive"}
{"gene knocked down": "CG6985 (GeneID 42694)", "DRSC id": "DRSC16164", "activity call": "inactive"}
{"gene knocked down": "CanA1 (GeneID 43670)", "DRSC id": "DRSC16600", "activity call": "inactive"}
{"gene knocked down": "Drep4 (GeneID 34734)", "DRSC id": "DRSC03408", "activity call": "inactive"}
{"gene knocked down": "Tsp96F (GeneID 43127)", "DRSC id": "DRSC14147", "activity call": "inactive"}
{"gene knocked down": "frma (GeneID 31464)", "DRSC id": "DRSC18297", "activity call": "inactive"}
{"gene knocked down": "CG33771 (GeneID 3772424)", "DRSC id": "DRSC11718", "activity call": "inactive"}
{"gene knocked down": "Bmcp (GeneID 39322)", "DRSC id": "DRSC10808", "activity call": "inactive"}
{"gene knocked down": "ABCB7 (GeneID 38193)", "DRSC id": "DRSC08603", "activity call": "inactive"}
{"gene knocked down": "CG32554 (GeneID 32767)", "DRSC id": "DRSC22713", "activity call": "inactive"}
{"gene knocked down": "Hsp23 (GeneID 39077)", "DRSC id": "DRSC11188", "activity call": "inactive"}
{"gene knocked down": "CG14693 (GeneID 41299)", "DRSC id": "DRSC14916", "activity call": "inactive"}
{"gene knocked down": "mei-P22 (GeneID 38797)", "DRSC id": "DRSC11366", "activity call": "inactive"}
{"gene knocked down": "Smr (GeneID 32225)", "DRSC id": "DRSC19495", "activity call": "inactive"}
{"gene knocked down": "Smr (GeneID 32225)", "DRSC id": "DRSC20288", "activity call": "inactive"}
{"gene knocked down": "Mipp1 (GeneID 39841)", "DRSC id": "DRSC11223", "activity call": "inactive"}
{"gene knocked down": "Sply (GeneID 46059)", "DRSC id": "DRSC07299", "activity call": "inactive"}
{"gene knocked down": "CG4704 (GeneID 42706)", "DRSC id": "DRSC15628", "activity call": "inactive"}

Continued (6 carried over from the part before).
{"gene knocked down": "mei-P22 (GeneID 38797)", "DRSC id": "DRSC11366", "activity call": "inactive"}
{"gene knocked down": "Smr (GeneID 32225)", "DRSC id": "DRSC19495", "activity call": "inactive"}
{"gene knocked down": "Smr (GeneID 32225)", "DRSC id": "DRSC20288", "activity call": "inactive"}
{"gene knocked down": "Mipp1 (GeneID 39841)", "DRSC id": "DRSC11223", "activity call": "inactive"}
{"gene knocked down": "Sply (GeneID 46059)", "DRSC id": "DRSC07299", "activity call": "inactive"}
{"gene knocked down": "CG4704 (GeneID 42706)", "DRSC id": "DRSC15628", "activity call": "inactive"}
{"gene knocked down": "CG30427 (GeneID 37986)", "DRSC id": "DRSC04014", "activity call": "inactive"}
{"gene knocked down": "CG30427 (GeneID 37986)", "DRSC id": "DRSC04311", "activity call": "inactive"}
{"gene knocked down": "CG30427 (GeneID 37986)", "DRSC id": "DRSC04323", "activity call": "inactive"}
{"gene knocked down": "MtnD (GeneID 326270)", "DRSC id": "DRSC22733", "activity call": "inactive"}
{"gene knocked down": "CG6891 (GeneID 32865)", "DRSC id": "DRSC20016", "activity call": "inactive"}
{"gene knocked down": "Aldh (GeneID 34256)", "DRSC id": "DRSC02717", "activity call": "inactive"}
{"gene knocked down": "CG6567 + CG42394", "DRSC id": "DRSC22241", "activity call": "inactive"}
{"gene knocked down": "CG12177 (GeneID 32326)", "DRSC id": "DRSC19437", "activity call": "inactive"}
{"gene knocked down": "CG12177 (GeneID 32326)", "DRSC id": "DRSC21524", "activity call": "inactive"}
{"gene knocked down": "CG3038 (GeneID 30970)", "DRSC id": "DRSC18618", "activity call": "inactive"}
{"gene knocked down": "CG3434 (GeneID 39098)", "DRSC id": "DRSC10365", "activity call": "inactive"}
{"gene knocked down": "CG6621 (GeneID 41319)", "DRSC id": "DRSC16076", "activity call": "inactive"}
{"gene knocked down": "zfh2 (GeneID 43795)", "DRSC id": "DRSC17178", "activity call": "active"}
{"gene knocked down": "CG42566 (GeneID 8674120)", "DRSC id": "DRSC03949", "activity call": "inactive"}
{"gene knocked down": "TMEM216 + CG11760", "DRSC id": "DRSC14375", "activity call": "inactive"}
{"gene knocked down": "Ptp52F (GeneID 36790)", "DRSC id": "DRSC06717", "activity call": "inactive"}
{"gene knocked down": "CG42662 + CG30080", "DRSC id": "DRSC05571", "activity call": "inactive"}
{"gene knocked down": "CG4743 (GeneID 43101)", "DRSC id": "DRSC15636", "activity call": "inactive"}
{"gene knocked down": "Tim13 (GeneID 39327)", "DRSC id": "DRSC09848", "activity call": "inactive"}
{"gene knocked down": "Acn (GeneID 35173)", "DRSC id": "DRSC02062", "activity call": "inactive"}
{"gene knocked down": "LIMK1 (GeneID 32207)", "DRSC id": "DRSC19811", "activity call": "inactive"}
{"gene knocked down": "CG16888 (GeneID 34789)", "DRSC id": "DRSC02541", "activity call": "inactive"}
{"gene knocked down": "CG31626 + CG8677", "DRSC id": "DRSC21844", "activity call": "inactive"}
{"gene knocked down": "snRNP-U1-70K (GeneID 33982)", "DRSC id": "DRSC03612", "activity call": "inactive"}
{"gene knocked down": "snRNP-U1-70K (GeneID 33982)", "DRSC id": "DRSC22071", "activity call": "inactive"}
